Earlier results, collected in patent US20240173315A1 (OWP Pharmaceuticals, Inc., priority 2022, published 2024).

Target: T1, α1A receptors (Homo sapiens, UniProt P35348)
T1 sequence (P35348 1-466): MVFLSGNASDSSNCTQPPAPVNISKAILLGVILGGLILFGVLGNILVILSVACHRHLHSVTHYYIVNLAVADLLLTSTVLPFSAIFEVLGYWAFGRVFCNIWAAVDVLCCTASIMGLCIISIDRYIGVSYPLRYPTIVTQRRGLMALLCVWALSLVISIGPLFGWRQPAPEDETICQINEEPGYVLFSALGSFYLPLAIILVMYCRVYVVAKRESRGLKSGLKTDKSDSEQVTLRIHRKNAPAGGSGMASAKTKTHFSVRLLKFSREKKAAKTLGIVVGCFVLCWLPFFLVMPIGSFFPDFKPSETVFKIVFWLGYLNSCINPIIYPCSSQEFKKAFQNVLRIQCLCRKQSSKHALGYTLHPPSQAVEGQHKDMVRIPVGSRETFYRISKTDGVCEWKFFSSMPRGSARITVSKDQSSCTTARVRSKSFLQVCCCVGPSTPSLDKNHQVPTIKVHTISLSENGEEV
Conditions: read-out: Ki, antagonist at α1A

Compound: O=c1n(CCCN2CCN(c3cccc(Cl)c3)CC2)nc2ccccn12 [trazodone, 2-{3-[4-(3-chlorophenyl)piperazin-1-yl]propyl}[1,2,4]triazolo[4,3-a]pyridin-3(2H)-one]
- Ki: 0.153 µM
